This is an account of results in the supplement of paper PMC10849652.

Chains of the proteins cited; added tags and fusions are not shown. Lines headed by an entry give the natural chain unless they say otherwise; changes in a name come on top.
UniProt Q9UBK9, whole entry, looked up: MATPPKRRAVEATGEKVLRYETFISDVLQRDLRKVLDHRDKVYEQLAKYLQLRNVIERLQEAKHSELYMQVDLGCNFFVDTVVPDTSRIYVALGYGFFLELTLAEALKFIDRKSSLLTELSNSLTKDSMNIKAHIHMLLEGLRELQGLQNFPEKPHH
UniProt Q9UPT9: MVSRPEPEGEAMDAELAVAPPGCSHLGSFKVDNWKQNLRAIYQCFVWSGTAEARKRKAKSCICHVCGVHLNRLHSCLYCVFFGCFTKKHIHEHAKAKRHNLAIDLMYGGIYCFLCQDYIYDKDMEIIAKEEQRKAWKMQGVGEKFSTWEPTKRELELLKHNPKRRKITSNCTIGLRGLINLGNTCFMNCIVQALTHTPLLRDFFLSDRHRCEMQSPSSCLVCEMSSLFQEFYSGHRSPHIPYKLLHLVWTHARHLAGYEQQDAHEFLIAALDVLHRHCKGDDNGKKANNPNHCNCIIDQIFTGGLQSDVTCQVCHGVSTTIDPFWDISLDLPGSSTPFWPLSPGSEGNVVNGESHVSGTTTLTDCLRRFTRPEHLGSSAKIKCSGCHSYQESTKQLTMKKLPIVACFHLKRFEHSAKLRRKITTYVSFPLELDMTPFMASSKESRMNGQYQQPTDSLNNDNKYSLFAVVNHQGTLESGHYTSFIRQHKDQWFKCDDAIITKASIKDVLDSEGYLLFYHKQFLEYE
UniProt O60763: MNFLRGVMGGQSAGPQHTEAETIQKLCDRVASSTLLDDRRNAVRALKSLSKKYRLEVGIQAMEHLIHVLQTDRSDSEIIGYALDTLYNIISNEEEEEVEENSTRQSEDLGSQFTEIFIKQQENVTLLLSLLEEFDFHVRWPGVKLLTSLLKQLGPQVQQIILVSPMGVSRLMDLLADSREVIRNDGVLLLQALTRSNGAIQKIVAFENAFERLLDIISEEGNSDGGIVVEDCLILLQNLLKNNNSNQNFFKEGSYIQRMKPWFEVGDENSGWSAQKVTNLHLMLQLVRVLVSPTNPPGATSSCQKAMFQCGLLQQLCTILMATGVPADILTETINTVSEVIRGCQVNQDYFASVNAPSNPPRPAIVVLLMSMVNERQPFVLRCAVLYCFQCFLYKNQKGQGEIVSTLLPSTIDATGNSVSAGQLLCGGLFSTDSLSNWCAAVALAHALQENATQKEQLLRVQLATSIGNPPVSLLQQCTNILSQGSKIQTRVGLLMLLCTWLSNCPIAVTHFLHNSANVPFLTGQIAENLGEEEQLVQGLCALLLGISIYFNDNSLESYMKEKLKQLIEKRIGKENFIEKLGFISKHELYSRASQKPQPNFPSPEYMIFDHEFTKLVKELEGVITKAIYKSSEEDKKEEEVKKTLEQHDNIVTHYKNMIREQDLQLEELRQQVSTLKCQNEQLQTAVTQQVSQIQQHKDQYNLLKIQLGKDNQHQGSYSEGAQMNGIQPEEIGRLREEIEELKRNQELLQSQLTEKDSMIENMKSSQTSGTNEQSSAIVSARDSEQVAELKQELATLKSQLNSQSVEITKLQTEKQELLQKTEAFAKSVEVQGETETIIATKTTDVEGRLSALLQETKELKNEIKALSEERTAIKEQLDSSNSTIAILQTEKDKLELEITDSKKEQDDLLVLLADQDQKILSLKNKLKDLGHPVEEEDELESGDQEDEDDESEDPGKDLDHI
UniProt P31930: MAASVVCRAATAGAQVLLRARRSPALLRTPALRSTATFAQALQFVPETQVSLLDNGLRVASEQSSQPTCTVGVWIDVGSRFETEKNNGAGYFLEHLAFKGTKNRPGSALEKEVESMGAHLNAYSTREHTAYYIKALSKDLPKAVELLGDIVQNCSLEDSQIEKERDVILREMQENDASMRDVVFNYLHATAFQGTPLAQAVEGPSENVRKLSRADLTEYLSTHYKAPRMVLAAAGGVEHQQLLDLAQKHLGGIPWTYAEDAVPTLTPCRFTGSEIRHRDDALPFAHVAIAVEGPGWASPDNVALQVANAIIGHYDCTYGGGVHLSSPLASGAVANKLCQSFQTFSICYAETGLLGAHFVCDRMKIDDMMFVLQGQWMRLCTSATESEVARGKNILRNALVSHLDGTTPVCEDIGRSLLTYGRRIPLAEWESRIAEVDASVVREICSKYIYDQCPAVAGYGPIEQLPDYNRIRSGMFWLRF
UniProt O94763, whole entry, looked up: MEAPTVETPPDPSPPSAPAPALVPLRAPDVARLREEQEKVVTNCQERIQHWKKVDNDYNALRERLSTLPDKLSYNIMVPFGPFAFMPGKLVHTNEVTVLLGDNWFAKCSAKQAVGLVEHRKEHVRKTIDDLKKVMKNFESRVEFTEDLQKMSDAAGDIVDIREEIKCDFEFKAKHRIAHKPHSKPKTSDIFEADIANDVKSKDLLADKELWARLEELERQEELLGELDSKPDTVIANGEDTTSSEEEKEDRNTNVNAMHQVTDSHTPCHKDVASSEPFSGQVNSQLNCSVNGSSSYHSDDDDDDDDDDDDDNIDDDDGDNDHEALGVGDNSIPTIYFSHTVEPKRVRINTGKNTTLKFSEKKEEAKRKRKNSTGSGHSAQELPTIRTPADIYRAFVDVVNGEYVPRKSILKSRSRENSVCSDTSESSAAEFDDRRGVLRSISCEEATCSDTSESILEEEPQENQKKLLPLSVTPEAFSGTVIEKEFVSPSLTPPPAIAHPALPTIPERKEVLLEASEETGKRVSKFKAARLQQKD
UniProt Q9BQ65: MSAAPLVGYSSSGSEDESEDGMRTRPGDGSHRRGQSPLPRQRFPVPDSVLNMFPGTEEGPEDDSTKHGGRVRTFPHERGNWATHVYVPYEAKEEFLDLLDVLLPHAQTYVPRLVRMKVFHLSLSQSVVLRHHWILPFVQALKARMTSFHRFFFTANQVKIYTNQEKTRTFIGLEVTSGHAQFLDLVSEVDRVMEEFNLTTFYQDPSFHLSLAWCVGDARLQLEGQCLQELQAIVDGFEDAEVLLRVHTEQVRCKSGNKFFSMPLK
UniProt P06132: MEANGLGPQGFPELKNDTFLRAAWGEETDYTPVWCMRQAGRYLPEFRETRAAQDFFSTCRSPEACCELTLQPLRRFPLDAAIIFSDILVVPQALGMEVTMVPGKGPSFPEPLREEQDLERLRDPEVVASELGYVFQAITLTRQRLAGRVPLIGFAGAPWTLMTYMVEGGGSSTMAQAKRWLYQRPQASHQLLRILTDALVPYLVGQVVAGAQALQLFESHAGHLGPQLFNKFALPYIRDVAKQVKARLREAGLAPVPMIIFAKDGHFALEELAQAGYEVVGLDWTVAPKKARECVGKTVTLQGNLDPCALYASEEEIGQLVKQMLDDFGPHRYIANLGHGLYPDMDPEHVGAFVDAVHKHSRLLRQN
UniProt Q9NZ43: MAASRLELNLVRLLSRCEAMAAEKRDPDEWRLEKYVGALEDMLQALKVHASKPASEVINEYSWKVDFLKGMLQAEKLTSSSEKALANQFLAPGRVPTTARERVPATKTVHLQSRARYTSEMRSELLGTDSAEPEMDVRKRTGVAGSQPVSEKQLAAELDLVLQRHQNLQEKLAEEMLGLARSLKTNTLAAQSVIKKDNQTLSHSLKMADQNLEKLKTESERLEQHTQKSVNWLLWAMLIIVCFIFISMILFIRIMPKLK
UniProt Q9BVJ6: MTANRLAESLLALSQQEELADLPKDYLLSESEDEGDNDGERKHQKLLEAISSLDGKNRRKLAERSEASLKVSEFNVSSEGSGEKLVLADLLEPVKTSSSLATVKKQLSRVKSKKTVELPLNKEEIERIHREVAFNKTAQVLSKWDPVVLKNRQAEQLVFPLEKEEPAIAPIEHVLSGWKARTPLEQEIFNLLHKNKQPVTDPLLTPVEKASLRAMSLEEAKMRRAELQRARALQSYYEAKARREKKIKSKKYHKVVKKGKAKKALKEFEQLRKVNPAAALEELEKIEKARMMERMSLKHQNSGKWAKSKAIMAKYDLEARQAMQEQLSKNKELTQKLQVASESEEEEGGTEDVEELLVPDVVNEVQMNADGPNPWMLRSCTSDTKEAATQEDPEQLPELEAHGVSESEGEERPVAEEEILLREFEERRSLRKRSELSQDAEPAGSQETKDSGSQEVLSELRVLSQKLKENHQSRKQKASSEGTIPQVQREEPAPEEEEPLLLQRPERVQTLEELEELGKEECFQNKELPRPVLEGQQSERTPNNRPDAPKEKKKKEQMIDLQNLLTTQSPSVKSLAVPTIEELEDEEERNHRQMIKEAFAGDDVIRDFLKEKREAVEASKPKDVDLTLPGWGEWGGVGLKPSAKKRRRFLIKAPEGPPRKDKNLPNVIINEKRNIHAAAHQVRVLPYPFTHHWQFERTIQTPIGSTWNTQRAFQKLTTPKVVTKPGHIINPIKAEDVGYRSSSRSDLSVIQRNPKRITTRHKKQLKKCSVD
UniProt Q9H3U1: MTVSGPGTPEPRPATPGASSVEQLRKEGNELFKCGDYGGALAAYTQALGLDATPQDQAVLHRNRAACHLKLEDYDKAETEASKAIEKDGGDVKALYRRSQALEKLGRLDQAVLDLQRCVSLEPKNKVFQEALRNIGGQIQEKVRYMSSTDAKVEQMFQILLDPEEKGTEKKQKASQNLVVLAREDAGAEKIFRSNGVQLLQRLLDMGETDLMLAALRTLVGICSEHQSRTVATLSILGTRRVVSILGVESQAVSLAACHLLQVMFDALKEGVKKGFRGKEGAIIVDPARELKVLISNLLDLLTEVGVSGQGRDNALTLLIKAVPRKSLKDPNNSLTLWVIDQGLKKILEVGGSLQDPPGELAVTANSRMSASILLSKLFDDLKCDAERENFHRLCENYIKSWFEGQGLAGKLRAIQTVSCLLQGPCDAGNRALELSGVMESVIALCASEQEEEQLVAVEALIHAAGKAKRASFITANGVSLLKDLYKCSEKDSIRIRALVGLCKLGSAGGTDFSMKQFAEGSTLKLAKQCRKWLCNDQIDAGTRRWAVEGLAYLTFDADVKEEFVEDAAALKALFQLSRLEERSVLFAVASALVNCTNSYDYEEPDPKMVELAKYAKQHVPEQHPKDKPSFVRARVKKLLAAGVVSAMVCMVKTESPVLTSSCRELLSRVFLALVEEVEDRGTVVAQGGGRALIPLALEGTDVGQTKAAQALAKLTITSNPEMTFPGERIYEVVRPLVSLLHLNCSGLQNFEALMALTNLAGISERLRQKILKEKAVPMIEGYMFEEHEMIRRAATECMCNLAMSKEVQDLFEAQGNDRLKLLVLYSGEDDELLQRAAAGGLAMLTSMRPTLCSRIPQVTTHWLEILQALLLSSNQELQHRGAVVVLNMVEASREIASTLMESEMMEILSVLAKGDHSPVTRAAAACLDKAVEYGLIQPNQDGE
UniProt Q9P0L0: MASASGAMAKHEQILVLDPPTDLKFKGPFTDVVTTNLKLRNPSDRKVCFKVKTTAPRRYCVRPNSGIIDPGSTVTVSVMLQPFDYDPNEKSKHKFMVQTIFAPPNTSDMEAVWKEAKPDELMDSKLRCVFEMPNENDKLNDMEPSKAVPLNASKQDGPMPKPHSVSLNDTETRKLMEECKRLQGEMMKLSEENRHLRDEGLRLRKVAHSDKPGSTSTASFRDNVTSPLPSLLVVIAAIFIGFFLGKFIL
UniProt Q9H1J1: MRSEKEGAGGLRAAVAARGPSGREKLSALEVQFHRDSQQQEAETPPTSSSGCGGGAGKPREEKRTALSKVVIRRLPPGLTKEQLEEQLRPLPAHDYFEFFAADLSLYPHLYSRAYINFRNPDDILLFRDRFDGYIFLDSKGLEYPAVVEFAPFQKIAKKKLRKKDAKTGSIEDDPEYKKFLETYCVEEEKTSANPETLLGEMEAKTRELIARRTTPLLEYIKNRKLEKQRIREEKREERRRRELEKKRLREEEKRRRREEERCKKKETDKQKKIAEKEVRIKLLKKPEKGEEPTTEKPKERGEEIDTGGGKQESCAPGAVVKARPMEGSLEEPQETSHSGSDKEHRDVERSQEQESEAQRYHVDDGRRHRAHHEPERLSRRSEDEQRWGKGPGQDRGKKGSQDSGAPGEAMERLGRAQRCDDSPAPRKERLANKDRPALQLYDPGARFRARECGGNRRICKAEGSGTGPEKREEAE

The list shows a part of the results.

What all share (assay): log2 fold change, soluble protein after heating vs DMSO (PISA); higher = thermal stabilisation; K562 lysate, 10 uM; active = over 0.2 and 3.5 SD of the protein, either way, in both replicates (recomputed)
Compound in assay [1]: NCC(=O)Nc1ccc(-n2nc(C(F)(F)F)cc2-c2ccc3c(ccc4ccccc43)c2)cc1
Summed up: (§1)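 K562 pellets were dounce-homogenised in PBS pH 7.4 containing 1 mM MgCl2, and the crude extract, at 1 mg/mL protein, was exposed to 10 μM compound for 30 min. Aliquots were heated for 3 min across 48°C-58°C, pooled, brought to 0.5% NP-40 at 4°C and spun at 21,000xg for 90 min, with the supernatant taken as soluble protein. TMTpro 16plex LC-MS/MS with equalised channel sums quantified that protein. Values are log-two fold changes in thermal stability relative to solvent controls, taken from duplicates.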

Compound in assay [2]: O=C(CCCCCCC(=O)Nc1ccccc1)NO [vorinostat]
The essentials:
as §1

Compound in assay [3]: O=C(O)c1ccc2c(c1)nc(Nc1cccc(Cl)c1)c1ccncc12 [silmitasertib]
Summed up:
as §1

Compound in assay [4]: O=C1NC(=O)C(c2cnc3ccccn23)=C1c1cn2c3c(cc(F)cc13)CN(C(=O)N1CCCCC1)CC2
Summed up: as §1

Compound in assay [5]: c1cn2cc(-c3ccc4cn[nH]c4c3)nc(Nc3ccc(N4CCOCC4)cc3)c2n1 [entospletinib]
The essentials: as §1

Take UXT isoform 2 (UniProt Q9UBK9): the log2 fold change in assay [1] was inactive: -0.003; in assay [2], inactive: 0.037; in assay [3], inactive: -0.039; in assay [4] it was inactive: -0.025; in assay [5] it was inactive: 0.02.
Take USP22 (UniProt Q9UPT9): the log2 fold change in assay [1] is inactive: -0.069; in assay [2], active: -0.323; in assay [3], inactive: -0.045; in assay [4], inactive: 0.001; in assay [5] it was inactive: 0.059.
The like results for USO1 (UniProt O60763) were, in that order, inactive: -0.102, inactive: -0.066, inactive: 0.003, inactive: 0.064 and inactive: 0.047.
On to USP1 (UniProt O94782), for which the log2 fold change in assay [1] is inactive: -0.002; in assay [2], inactive: -0.156; in assay [3] it was inactive: 0.02; in assay [4], inactive: -0.003; in assay [5], inactive: 0.029.
For UQCRC1 (UniProt P31930), in that order: inactive: 0.031, inactive: 0.135, inactive: -0.016, inactive: -0.012 and inactive: -0.005.
For URI1 (UniProt O94763), in that order: inactive: 0.012, inactive: 0.014, inactive: -0.001, inactive: -0.008 and inactive: -0.011.
As to USB1 (UniProt Q9BQ65), the log2 fold change in assay [1] was inactive: -0.119; in assay [2], inactive: -0.052; in assay [3] it was inactive: -0.043; in assay [4], inactive: 0.032; in assay [5], inactive: -0.161.
As for UROD (UniProt P06132), the log2 fold change in assay [1] is inactive: 0.017; in assay [2] it was inactive: 0.147; in assay [3], inactive: 0.021; in assay [4] it was inactive: -0.017; in assay [5], inactive: -0.007.
For USE1 (UniProt Q9NZ43), in that order: inactive: -0.113, inactive: -0.029, inactive: 0.028, inactive: 0.053 and inactive: -0.036.
The like results for UTP14A (UniProt Q9BVJ6) were, in that order, inactive: -0.024, inactive: 0.09, inactive: -0.119, inactive: -0.018 and inactive: -0.014.
The like results for UNC45A (UniProt Q9H3U1) were, in that order, inactive: -0.005, active: -0.588, inactive: 0.011, inactive: 0.008 and inactive: 0.01.
In the case of VAPA isoform 2 (UniProt Q9P0L0), the log2 fold change was inactive: 0.013 in assay [1]; inactive: 0.029 in assay [2]; inactive: 0.024 in assay [3]; inactive: -0.031 in assay [4]; inactive: -0.031 in assay [5].
As for UPF3A (UniProt Q9H1J1), the log2 fold change was inactive: 0.251 in assay [2], inactive: 0.013 in assay [3], inactive: 0.078 in assay [4] and inactive: -0.243 in assay [5].
